Measured values taken from patent US6407062.

Amino acid sequences for entries named in this document (tags omitted). Chains listed by the source or under a name are the forms on record and can include a tag or linker.
UniProt P23804, other isoform, or with tags, fused parts or gaps: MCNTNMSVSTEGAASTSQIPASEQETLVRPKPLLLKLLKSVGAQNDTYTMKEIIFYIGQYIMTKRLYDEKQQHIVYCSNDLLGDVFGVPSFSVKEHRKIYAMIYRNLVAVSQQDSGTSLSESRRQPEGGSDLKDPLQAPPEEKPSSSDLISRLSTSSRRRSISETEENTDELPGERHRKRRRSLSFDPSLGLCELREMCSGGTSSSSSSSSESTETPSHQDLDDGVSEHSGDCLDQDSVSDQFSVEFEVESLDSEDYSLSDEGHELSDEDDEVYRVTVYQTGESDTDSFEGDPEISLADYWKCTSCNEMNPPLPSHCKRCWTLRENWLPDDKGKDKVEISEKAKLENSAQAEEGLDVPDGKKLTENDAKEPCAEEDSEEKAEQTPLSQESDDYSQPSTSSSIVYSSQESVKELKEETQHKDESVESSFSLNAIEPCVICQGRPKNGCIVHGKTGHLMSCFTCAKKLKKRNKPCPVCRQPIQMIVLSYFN

Key:
[1] = target: mdm2 (UniProt P23804); experiment: EMSA; conditions: mdm2 did not bind probe nor affect mobility of p53 complexes; protein in a lysate after overexpression; label: 32P 5'-end
[2] = target: T1, p19ARF (Mus musculus) (UniProt Q64364); experiment: EMSA; conditions: ARF alone does not bind probe; binds p53-DNA complex; protein in a lysate after overexpression; protein details: baculovirus Sf9 extract; label: 32P 5'-end
T1 sequence (limits assumed): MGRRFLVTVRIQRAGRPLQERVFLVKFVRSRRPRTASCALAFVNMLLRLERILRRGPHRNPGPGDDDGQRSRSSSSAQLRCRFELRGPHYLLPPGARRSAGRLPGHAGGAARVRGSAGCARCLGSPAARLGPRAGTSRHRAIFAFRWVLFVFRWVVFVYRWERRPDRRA

## AGGCATGCCTAGGCATGCCT (double strand) [double p53 consensus oligonucleotide]
[1]
  binding result: no binding
[2]
  binding result: no binding

Results from cells or extracts need not show a direct contact. Negatives hold for the conditions tested. For some assays here: Protein sequences can lack the tags named with them.
